From patent publication US10849880B2, “Pharmaceutical composition” (FUJIFILM Toyama Chemical Co., Ltd., priority 2016, dated 2020)

Test: Evaluation of bitter taste (post-bitter taste) with taste sensing system SA402B, CPA value, 1 mg/mL sample
Conditions: bitter taste score from CPA value via sensory calibration curve; maleate of compound A 1 mg/mL in 10 mmol/L KCl, agitated 30 minutes

SMILES: OC1CN(CCCOCCc2ccc3sccc3c2)C1 [compound 14, 1-(3-(2-(1-benzothiophen-5-yl)ethoxy)propyl)azetidin-3-ol]
- Bitter taste (post-bitter taste): 3.0
